Assay [1] addresses T1, Regenerating islet-derived protein 1-alpha (REG1α), Flag-tagged, exogenously expressed (human) (UniProt P05451).
T1 sequence: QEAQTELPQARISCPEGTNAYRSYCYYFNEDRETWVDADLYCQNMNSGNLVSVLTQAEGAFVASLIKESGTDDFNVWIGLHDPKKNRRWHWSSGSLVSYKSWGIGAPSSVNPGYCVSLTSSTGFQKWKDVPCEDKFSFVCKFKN
Put plainly: co-IP; exogenous: anti-Flag antibody on lysate of CRC cells expressing Flag-REG1α, IgG as negative control; IP lysis buffer, antibody overnight at 4 °C, Protein A/G magnetic beads, western blot. In general terms: A western blot detects proteins with antibodies after separation by electrophoresis.

The chains behind the UniProt entries cited, without tags or fusion partners.
UniProt P35222: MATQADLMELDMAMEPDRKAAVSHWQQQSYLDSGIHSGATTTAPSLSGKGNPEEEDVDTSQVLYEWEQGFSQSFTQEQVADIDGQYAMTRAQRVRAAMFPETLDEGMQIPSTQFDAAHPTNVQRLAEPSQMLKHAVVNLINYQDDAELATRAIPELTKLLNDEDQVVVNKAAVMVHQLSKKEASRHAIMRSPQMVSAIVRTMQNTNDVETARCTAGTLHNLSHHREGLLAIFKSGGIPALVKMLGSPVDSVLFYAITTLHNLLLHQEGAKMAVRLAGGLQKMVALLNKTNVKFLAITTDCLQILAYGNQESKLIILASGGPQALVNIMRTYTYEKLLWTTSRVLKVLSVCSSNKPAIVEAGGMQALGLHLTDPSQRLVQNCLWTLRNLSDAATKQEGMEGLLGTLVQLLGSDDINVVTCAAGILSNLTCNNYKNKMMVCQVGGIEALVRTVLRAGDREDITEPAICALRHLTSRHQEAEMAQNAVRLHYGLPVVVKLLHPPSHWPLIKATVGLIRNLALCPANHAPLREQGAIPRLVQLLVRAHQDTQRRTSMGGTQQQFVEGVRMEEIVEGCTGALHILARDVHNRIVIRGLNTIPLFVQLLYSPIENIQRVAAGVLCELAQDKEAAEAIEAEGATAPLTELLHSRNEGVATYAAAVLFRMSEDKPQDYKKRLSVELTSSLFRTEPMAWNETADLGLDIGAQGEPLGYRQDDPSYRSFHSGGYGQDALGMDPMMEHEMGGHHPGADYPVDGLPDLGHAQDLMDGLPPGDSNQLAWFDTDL

Assay [2] deals with β-catenin, endogenous (human (endogenous in CRC cells)) (UniProt P35222). The experiment in a line: co-IP; endogenous: anti-β-catenin antibody on CRC cell lysate, IgG as negative control; IP lysis buffer, antibody overnight at 4 °C, Protein A/G magnetic beads, western blot.

This note sets out measurements from PMC10457312.

Results are given in words; binding and its absence hold for the method and conditions named. In cells and extracts the contact can be indirect. Some binding calls cover weakened binding; strength is not graded here. For some assays here: Sequences can lack the tags named with a protein.

Take “β-catenin, endogenous (from UniProt P35222 1-781)”: in assay [1], the binding entry is recorded as “binds”.

B1: Regenerating islet-derived protein 1-alpha (REG1α), endogenous (protein, UniProt P05451 23-166)
chain: T1 sequence
For B1, the binding entry in assay [2] is “binds”.
